Measurements reported in publication PMC9635879.
These are yes or no findings as the source states them, for the method shown. In cells and extracts the contact can be indirect. Some results given as binding are weak or reduced against the parent protein; the word gives no strength. Tags and fused reporters may be left off the sequences shown.

Amino acid sequences for entries named in this document (tags omitted).
UniProt P99999: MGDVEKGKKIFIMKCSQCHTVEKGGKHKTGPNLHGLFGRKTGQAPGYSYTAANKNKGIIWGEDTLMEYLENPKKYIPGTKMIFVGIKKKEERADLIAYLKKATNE

Legend:
[1] = target: T1, FLAG-tagged mouse HIGD1C (Higd1c-Myc-FLAG) (mouse) (UniProt Q76I25); experiment: co-IP; FLAG-conjugated beads; 1 mg of mitochondria extracted in 1.5 M aminocaproic acid, 50 mM Bis-Tris pH 7, 1% digitonin; 2-3 hr at 4°C; SDS-PAGE and immunoblot of ETC subunits and cytochrome c; wild-type, HIGD1A-KO and HIGD2A-KO HEK293T cells
T1 sequence: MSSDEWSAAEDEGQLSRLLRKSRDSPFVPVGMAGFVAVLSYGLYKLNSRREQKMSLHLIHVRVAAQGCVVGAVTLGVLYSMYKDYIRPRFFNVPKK

[2] = target: T2, FLAG-tagged human HIGD1C (HIGD1C-Myc-FLAG) (human) (UniProt A8MV81); experiment: as above
T2 sequence: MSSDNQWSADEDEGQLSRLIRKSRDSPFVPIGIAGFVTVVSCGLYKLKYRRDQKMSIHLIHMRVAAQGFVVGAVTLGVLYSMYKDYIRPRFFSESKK

binding [1]: binds
binding [2]: binds
Substance: cytochrome c (from UniProt P99999 1-105)
